Laboratory results taken from PubChem BioAssay AID1671190 (National Center for Advancing Translational Sciences (NCATS), 2021).
About 6,100 (1.1%) of roughly 580,000 compounds were called active. Inconclusive means that the source gave no clear call. Such entries were picked first, then a sample of the others. Calls follow the shape of the dose curve; as a rule, active = well fitted inhibition curve with a large enough effect; inconclusive = small, poorly fitted or top-dose-only effect, or another doubt; inactive = no such curve, though single readings can be large or run the other way. Potencies beside an inconclusive call are fits to weak or partial responses and may not hold up.

Chains of the proteins cited; added tags and fusions are not shown. Lines headed by an entry give the natural chain unless they say otherwise; changes in a name come on top.
UniProt P18054: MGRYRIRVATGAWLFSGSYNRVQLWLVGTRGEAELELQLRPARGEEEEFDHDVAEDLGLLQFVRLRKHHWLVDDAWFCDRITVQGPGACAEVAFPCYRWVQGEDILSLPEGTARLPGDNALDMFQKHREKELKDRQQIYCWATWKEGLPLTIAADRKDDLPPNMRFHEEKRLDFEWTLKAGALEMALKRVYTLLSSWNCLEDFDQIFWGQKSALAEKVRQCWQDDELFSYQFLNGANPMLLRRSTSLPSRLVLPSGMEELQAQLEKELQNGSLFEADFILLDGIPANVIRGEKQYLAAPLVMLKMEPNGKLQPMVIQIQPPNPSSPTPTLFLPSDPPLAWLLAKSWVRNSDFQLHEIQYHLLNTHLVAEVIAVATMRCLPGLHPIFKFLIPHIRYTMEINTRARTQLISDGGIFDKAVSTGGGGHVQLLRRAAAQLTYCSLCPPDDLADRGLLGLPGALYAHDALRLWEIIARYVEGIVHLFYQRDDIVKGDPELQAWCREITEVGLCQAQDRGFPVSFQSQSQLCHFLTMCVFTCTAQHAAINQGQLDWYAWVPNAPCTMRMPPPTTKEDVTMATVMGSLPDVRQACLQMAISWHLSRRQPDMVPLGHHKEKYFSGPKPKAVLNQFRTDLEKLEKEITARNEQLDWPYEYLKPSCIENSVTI

target: Polyunsaturated fatty acid lipoxygenase ALOX12 (Homo sapiens) (UniProt P18054); assay: Primary qHTS assay for inhibitors of human arachidonate 12S-lipoxygenase (ALOX12): Round 2; conditions: purified 12hLO, xylenol orange hydroperoxide absorbance; series mostly up to 108 µM
Outline: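 Purified human 12hLO (150 nM final) in 25 mM Hepes, 0.01% Triton X-100, pH 7.0 was preincubated 15 min at room temperature with compound. Then 40 uM arachidonic acid was added, 30 min. Hydroperoxide was read by Fe-XO absorbance ratio 573/405 nm.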
Potency is read from the fitted curve at half-maximal effect.

| SMILES | Potency |
| --- | --- |
| COc1cc(OC)c(OC)cc1CNC(=O)Cc1cccc(C(F)(F)F)c1 | inconclusive: 112 µM [inhibitor, single point] |
| Cc1cccc(NC(=O)c2c(NC(=O)C(F)(F)F)sc3c2CCCCC3)c1 | inconclusive: 44.7 µM [inhibitor, partial curve, poor fit] |
| Cc1ccc2oc(-c3ccc4ccccc4c3)c(C)c(=O)c2c1 | inconclusive: 50.1 µM [inhibitor, partial curve, poor fit] |
| COc1ccc(C)cc1Nc1n[n+](-c2ccccc2)c(-c2ccc(SC)cc2)s1 | inconclusive: 31.6 µM [inhibitor, single point] |
| CC(=O)Nc1ccc(S(=O)(=O)N(C)CC(=O)NC2=NCCS2)cc1 | inconclusive: 35.5 µM [inhibitor, partial curve, poor fit] |
| O=c1[nH]c(CSc2nnc(-c3ccccc3F)n2C2CC2)nc2ccc(Cl)cc12 | inconclusive: 39.8 µM [inhibitor, single point] |
| CC(=O)OCCCCCCCCCCC[N+]1(C)CCCCC1 | inconclusive: 39.8 µM [inhibitor, partial curve, poor fit] |
| COc1ccccc1CN1CC[C@@H]2OCC(=O)N(Cc3c[nH]c4ccccc34)[C@H]2CC1 | inconclusive: 10 µM [inhibitor, full curve] |
| CCc1c(C)nc2cc(-c3cc(OC)cc(OC)c3)nn2c1N1CCCC1 | inactive |
| Cc1cc(OC(=O)c2ccc(CSc3ccc(Cl)cc3)cc2)cc(C(C)C)c1 | inactive |
| CC(C)CS(=O)(=O)C1=NN2C(=N)/C(=C\c3ccc(OC(=O)c4ccco4)cc3)C(=O)N=C2S1 | inconclusive: 126 µM [inhibitor, single point] |
| Oc1ccccc1CN1CCOC[C@H]1c1ncc(-c2ccccc2)[nH]1 | inactive |
| OCc1cc(CO)c(O)c(CCc2ccccc2)n1 | inconclusive: 35.5 µM [inhibitor, single point] |
| CCCc1cc(C(N)=O)c(NC(=O)c2ccoc2C)s1 | active: 31.6 µM |
| Nc1cc(=O)[nH]c(SCC(=O)Nc2cc(S(=O)(=O)N3CCCCC3)ccc2Cl)n1 | inconclusive: 89.1 µM [inhibitor, partial curve, poor fit] |
| CC(C)NCC(O)Cn1c2c(c3ccccc31)CCc1c-2cnn1-c1ccccc1 (configuration not stated) | inactive |
| CCOc1ccccc1CNC(=O)CCn1ccc2cc(S(=O)(=O)N3CCC(C)CC3)ccc21 | inactive |
| COc1ccc(NC(=O)[C@@H]2C[C@@H](c3ccc(F)cc3)N(CCOc3ccccc3)C2)cn1 | active: 31.6 µM |
| O=C(COC(=O)c1cccnc1Cl)Nc1cccc(S(=O)(=O)N2CCCCC2)c1 | inconclusive: 112 µM [inhibitor, single point] |
| CN(C)C(C(=O)N1CCN(c2ncccc2C#N)CC1)c1cccc(F)c1 (configuration not stated) | inactive |
| Cc1c(NC(C)c2cc(Cl)ccc2O)c(=O)n(-c2ccccc2)n1C (configuration not stated) | inconclusive: 89.1 µM [inhibitor, single point] |
| COc1ccc(CN2CCc3ccccc3C2)c(OC)c1OC | inconclusive: 1.12 µM [inhibitor, full curve, poor fit] |
| COc1ccc2c(CNCCc3cccs3)c(C(=O)O)n(Cc3ccccc3)c2c1 | inactive |

Fetched by compound from the list above:

| SMILES | Potency |
| --- | --- |
| CC(C)NCC(O)Cn1c2c(c3ccccc31)CCc1c-2cnn1-c1ccccc1 (configuration not stated) | inactive |
| O=C(COC(=O)c1cccnc1Cl)Nc1cccc(S(=O)(=O)N2CCCCC2)c1 | inconclusive: 112 µM [inhibitor, single point] |
| CC(=O)Nc1ccc(S(=O)(=O)N(C)CC(=O)NC2=NCCS2)cc1 | inconclusive: 35.5 µM [inhibitor, partial curve, poor fit] |

The results go on.

| SMILES | Potency |
| --- | --- |
| Nc1ncnc2c(C3OC(CO)C(O)C3O)c[nH]c12 (configuration not stated) | inactive |
| O=C(c1ccc(Cn2cc(Br)cn2)cc1)N1CCN(c2ccccc2)CC1 | inconclusive: 44.7 µM [inhibitor, partial curve, poor fit] |
| CCOc1ccc(N2C(=O)C3Sc4[nH]c(=O)sc4C(/C=C/c4ccccc4)C3C2=O)cc1 (configuration not stated) | inconclusive: 15.8 µM [inhibitor, partial curve, poor fit] |
| O=C(COC(=O)/C=C/c1ccc(F)cc1)NCC1CCCO1 (configuration not stated) | inactive |
| COc1ccc(-c2noc([C@@H]3C[C@H](NS(=O)(=O)c4ccc5ccccc5c4)CN3C)n2)cc1 | inconclusive: 12.6 µM [inhibitor, full curve] |
| CC(=O)N(Cc1cccnc1)c1nc2c(C)c(C)ccc2s1 | inconclusive: 2.51 µM [inhibitor, full curve, poor fit] |
| COc1cc(NS(=O)(=O)c2ccc(NC(=S)NC(=O)c3sc4ccccc4c3Cl)cc2)nc(OC)n1 | inactive |
| Cc1ccc(Cl)cc1NC(=O)C1CCC(CNS(=O)(=O)c2cccc3nsnc23)CC1 (configuration not stated) | inconclusive: 100 µM [inhibitor, single point] |
| CCCCn1cnc2c1c(=O)n(CC(O)COc1ccccc1)c(=O)n2CCC (configuration not stated) | inactive |
| CCc1ccc2c(c1)NC(c1cccs1)=NC(c1ccc(F)cc1)=N2 | inactive |
| O=Cc1ccc(O)c(O)c1O | inconclusive: 2.28 µM [inhibitor, partial curve] |
| CCn1c(=O)c2ccnn2c2ccc(C(=O)NCc3ccc(OC)cc3OC)cc21 | inconclusive: 22.4 µM [inhibitor, full curve, poor fit] |
| Cc1cccc(C2Nc3cccc4cccc(c34)N2)c1 | inconclusive: 11.2 µM [inhibitor, partial curve, poor fit] |
| O=CN1Cc2nc3ccccc3n2-c2cc(Br)ccc21 | inactive |
| Cc1ccc(-c2n[nH]c(=S)n2/N=C/c2ccc(C)s2)cc1 | active: 15.8 µM |
| Cc1nnc(C(=O)NC(C)(C)c2nc(C(=O)NCc3ccc(F)cc3)c(O)c(=O)n2C)o1 | inconclusive: 6.11 µM [inhibitor, partial curve, poor fit] |
| CCC(=O)Nc1nc(C)c(-c2csc(Nc3ccccc3OC)n2)s1 | inconclusive: 44.7 µM [inhibitor, partial curve, poor fit] |
| COc1cc2[nH]c(=O)n(CCCCCC(=O)N3CCN(c4cccc(C(F)(F)F)c4)CC3)c(=O)c2cc1OC | inconclusive: 126 µM [inhibitor, partial curve, poor fit] |
| COc1cccc(Oc2nc3c(c(=O)n(Cc4ccccc4F)c(=O)n3C)n2C)c1 | inactive |
| Cc1cccc2[nH]c(C(=O)OCC(=O)N3CCCCC3)cc12 | inactive |
| CN1CCN(CC(=O)Nc2ccc(S(=O)(=O)N(C)C)cc2)CC1 | inconclusive: 1.26 µM [inhibitor, full curve] |
| Cc1ccc(C(C)C)cc1C(=O)CC1(O)C(=O)N(C(C)C)c2ccccc21 (configuration not stated) | inactive |
| COc1cccc(Nc2ncc3nc(-c4cc(F)cc(F)c4)c(=O)n(C4CC4)c3n2)c1 | inconclusive: 126 µM [inhibitor, single point] |

| SMILES | Potency |
| --- | --- |
| CCN(CC(=O)Nc1ccccc1OC)C(=O)c1cc(-c2ccccc2)nn1-c1ccccc1 | inactive |
| CC(=O)Nc1ccc(-c2csc(Nc3ccc(C)cc3)n2)cc1 | inconclusive: 7.08 µM [inhibitor, full curve, poor fit] |
| C=CCn1c(SCC(=O)Nc2nccs2)nnc1-c1cc2cccc(OC)c2o1 | inconclusive: 141 µM [inhibitor, partial curve, poor fit] |
| CCn1c(=O)n(CC(=O)N(C)Cc2ccc(C)cc2C)c2ccccc21 | inactive |
| C[C@H](CO)N1C[C@H](C)[C@@H](CN(C)S(=O)(=O)c2ccccc2)Oc2ccc(NC(=O)Nc3ccc(C(F)(F)F)cc3)cc2C1=O | inconclusive: 79.4 µM [inhibitor, single point] |
| CC1(C)CC(NC(=S)NCCc2ccccc2)CC(C)(CNC(=S)NCCc2ccccc2)C1 (configuration not stated) | inconclusive: 8.91 µM [inhibitor, full curve] |
| CC(C)c1ccc(NC(=O)CN(C)S(=O)(=O)c2ccc3c(c2)c(=O)n(C)c(=O)n3C)cc1 | inconclusive: 89.1 µM [inhibitor, partial curve, poor fit] |
| O=C(c1ccc(-c2ccc([N+](=O)[O-])cc2)o1)N1CCCC(C(F)(F)F)C1 (configuration not stated) | inconclusive: 56.2 µM [inhibitor, partial curve, poor fit] |
| Cc1cccc(NC(=O)CSc2cccc3cccnc23)c1C | inconclusive: 50.1 µM [inhibitor, partial curve, poor fit] |
| C=C(C(=O)c1ccccc1)C(C)CC(=O)c1ccccc1 (configuration not stated) | inactive |
| Cc1ccc(Nc2c(-c3ccco3)nc3nc(C)cc(C)n23)cc1 | inconclusive: 50.1 µM [inhibitor, partial curve, poor fit] |
| COc1ccc(C(O)c2nc(-c3ccc(C)c(C)c3)cs2)cc1 (configuration not stated) | inactive |
| Cc1ccc(NC(=O)Nc2ccon2)cc1Cl | inconclusive: 44.7 µM [inhibitor, partial curve, poor fit] |
| COCCNC(=O)[C@H]1C[C@H](Oc2cccnc2)CN1C(=O)NC1CCCC1 | inactive |
| CCC(=O)NCCc1nc2cc(NC(=O)c3cccs3)ccc2n1C | inactive |
| CCOC(=O)c1cn(CC)c2cc(N3CCOCC3)c(F)cc2c1=O | inconclusive: 89.1 µM [inhibitor, partial curve, poor fit] |
| COc1cccc(CNCc2ccc3c(c2)OCO3)c1 | inconclusive: 3.55 µM [inhibitor, full curve, poor fit] |
| COc1cc(OC)nc(C(NC(=O)C2CCN(Cc3c[nH]c4ccccc34)CC2)c2ccc(Cl)cc2)n1 (configuration not stated) | inconclusive: 44.7 µM [inhibitor, partial curve, poor fit] |
| O=C1CSC(=Nc2cccc(C(=O)O)c2)N1 | inactive |
| Cc1nc2ccc(C(=O)Nc3cccc(OCC(=O)N(C)C)c3)cn2c1N(C)CC1CCCCC1 | inactive |
| CCN(CC)CCNc1nc2c(c(=O)n(C)c(=O)n2C)n1Cc1ccc(Cl)cc1Cl | inconclusive: 39.8 µM [inhibitor, partial curve, poor fit] |
